Library screening results

The values are deposited in ChEMBL (CHEMBL3988442, “University of Dundee, Small-Polar-MMV Screening Library” (2021)).

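Viability assay of Plasmodium falciparum sporozoites; the read-out is not stated. The concentration is filed as 10 mM, unlikely as a test dose, so the dose is not known. The record gives no direction; compounds that gave an IC50 in retests scored well above the rest, so higher reads as lower viability. Strong results were mostly tested again. About 34,000 compounds were tested under these conditions; 0.84% (about 280) showed 50% or more at least once.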

Results are given as percent effect. The record does not define 0% and 100%; most values in the screen are far below 50% and negative numbers occur (in some assays of this library far below -100). Compounds were drawn at random from those tested, without regard to their results. Two or more numbers in one place are separate tests of the same structure; such repeats can differ widely.

structure | percent effect
O=C1NCC2(CCCN(Cc3cccnc3)C2)Oc2ccccc21 (stereo not drawn) | 3.14%
CC(C)N(Cc1ccccn1)C(=O)CN(C)C(=O)c1cccs1 | -2.149%
CNS(=O)(=O)c1cccc(CNC(=O)c2c(C)nn(C)c2C)c1 | -3.103%
O=C(NS(=O)(=O)c1ccccc1Cl)c1cccc2c1OCCO2 | -6.021%
Cc1nc(C)n(CC2CN(c3ncccc3C#N)CCO2)n1 (stereo not drawn) | 3.004%
O=C(O)C(F)(F)F.O=C(O)C(F)(F)F.[H][C@@]12CN(CC3CCOC3)C[C@]1([H])CN(c1ncccn1)C2 (stereo partly drawn) | -22.65%
COc1c(CNC2CCOc3c(F)cccc32)c(C)nn1C (stereo not drawn) | -13.24% & -17%
CCCC(=O)Nc1cnn(CC(=O)Nc2ccc(SC)cc2)c1 | 7.526%
O=C(Cc1ccc2c(c1)OCCO2)NC1CCCC1 | -2.289% & -38.13% & -31.67%
O=C(O)C(F)(F)F.[H][C@@]12CCCO[C@]1([H])[C@@H](OCC1CC1)CN2Cc1c(C)noc1C | -4.614%
[H][C@@]12CCN(C(=O)c3cscn3)[C@]1([H])CN(C(=O)NC1CC1)C2 | -2.773%
Cc1cnn(CC2CN(CC(=O)Nc3cc(C)on3)CCO2)c1 (stereo not drawn) | 7.64%
O=C(O)C(F)(F)F.[H][C@]12CN(Cc3cccnc3)C(=O)[C@@]1([H])CN(S(=O)(=O)C1CC1)C2 | -1.701%
COc1ccccc1CC(=O)N1CC[C@H](O)[C@]2(CCCO2)C1 | -29.58% & 24.1% & -19.4%
O=C(NCc1ccccc1OCCO)Nc1ccc2c(c1)CCC2 | -20.18%
CC(C(=O)NCCN1CCN(C)CC1)n1cncn1 (stereo not drawn) | -9.964%
O=C(c1cc(Cl)ccc1F)N1CCCC1Cn1cccn1 (stereo not drawn) | -0.2701%
CN(C)CCNCCC(Cc1ccccc1)C1CCOC(C)(C)C1.O=C(O)C(=O)O (stereo not drawn) | -7.206% & -3.014%
[H][C@]12CC[C@@]3(N=C(CC)N(C)C3=O)[C@@]1([H])CN(CC)C2 | 5.916%
O=C(O)C(F)(F)F.[H][C@@]12OCCN(CCOCc3ccccc3)[C@@]1([H])CC[C@@H]2OC | 2.47%
O=C(CN1CC(n2cccn2)C1)NCCC1=CCCCC1 | 12.15%
Cc1cnn(CC2CCCN2Cc2noc(CC(C)C)n2)c1 (stereo not drawn) | 0.9421%
CC(C)c1nnc2n1CCN(CCCS(=O)(=O)c1ccccc1)C2 | 7.85%
CCn1cc(NC(=O)NCCc2ccc3c(c2)OCO3)cn1 | -1.823%
Cc1cc(-n2cncn2)ccc1C(=O)N(C)CC(F)(F)C(F)(F)F | -19.24%
O=C1CCOC[C@]2(CN(Cc3ccccc3)C[C@H]2c2ccccc2)N1 | 1.776%
COc1cccc(N2CCN(C(=O)CO)CC2=O)c1 | 4.153%
O=C(O)C(F)(F)F.O=C(O)C(F)(F)F.[H][C@@]12CN(C(=O)c3ccco3)C[C@]1([H])OCCN2CCN1CCCC1 | -11.43%
COCc1nc(C(=O)N2CCCC2c2cccc(C)c2)cs1 (stereo not drawn) | 5.316% & -13.68% & -28.44%
O=C(c1ccc(C2CCCO2)s1)N1CCS(=O)(=O)CC1 (stereo not drawn) | 6.394% & 9.158% & -11.41%
O=C(O)C(F)(F)F.O=C(c1ccccc1F)N1CCC2(CC1)CC(N1CCCC1)CO2 (stereo not drawn) | -6.305%
Cc1ccccc1CN(C)Cc1nc2c(cnn2C)c(=O)[nH]1 | -3.221%
CC(c1ccccc1)N1CCC(NC(=O)CCc2ccsc2)CC1 (stereo not drawn) | -4.72%
CCOCC(O)CN1CCN(C(=O)c2cc(Cl)ccc2F)CC1 (stereo not drawn) | 3.853%
Cc1ccc(C)n1-c1c(C(=O)NCC(c2ccsc2)N(C)C)cnn1C (stereo not drawn) | 4.45%
O=C(CS(=O)(=O)C1CCCC1)NC1CCc2nccn2C1 (stereo not drawn) | -0.7353%
Cc1cc(C(F)F)nn1CC(=O)NCc1nccn1C | 9.304%
CN1CCN(Cc2nnc(C3CCN(CC4CC4)CC3)n2C)CC1 | -4.841%
Cn1cc(CN2CCCC3(COCCN(c4cccnc4)C3)C2)cn1.O=C(O)C(F)(F)F.O=C(O)C(F)(F)F (stereo not drawn) | -4.038%
O=C(O)C(F)(F)F.c1ccn(Cc2nnc3n2CCCN(Cc2ccoc2)C3)c1 | -7.302%
CCN1CCN(c2ccc(F)cc2C(C)NCc2noc(C)n2)CC1 (stereo not drawn) | -2.076%
c1cnnc(N2CCCC2CNCc2nc(C3CC3)no2)c1 (stereo not drawn) | 6.763%
Cc1nc(N2CCCC2)nc2c1CCN(Cc1nccn1C)CC2.O=C(O)C(F)(F)F | 12.15%
Cc1cc2ccncc2n1CC1(O)CCN(C(=O)c2ccncc2)CC1 | -7.754%
Cn1cc(CN(Cc2ccccc2)CC(O)c2cccs2)cn1 (stereo not drawn) | 1.615%
Cc1nccn1CCN(C)C(=O)c1cn(-c2ccccc2)nn1 | 5.192%
O=C(O)C(F)(F)F.O=C(O)C(F)(F)F.[H][C@@]12CN(CC3CCOCC3)C[C@]1([H])OCCN2c1ncccn1 | 6.13%
CN(C)CC1CSCCCN1C(=O)c1ccc(=O)[nH]c1 (stereo not drawn) | 4.358%
O=C(NCC1CCCO1)c1nc2c(s1)CCCN2C(=O)C1CC1 (stereo not drawn) | -5.565%
CCS(=O)(=O)N1CC[C@H](OC)[C@@H]1Cc1ccncc1 | 8.457%
Cc1noc(C(C)C)c1C(=O)NCc1cccc(N(C)C)c1 | -4.906%
CCN(CC)CC(=O)NCCc1csc(N2CCCC2)n1 | 1.502%
CC(C)Cc1noc(CN(C)c2cc(C(C)C)nc3ccnn23)n1 | -0.4615%
O=C(c1ccc(=O)[nH]n1)N1CC(c2nc(Cc3ccccc3)no2)C1 | 3.424%
CN(C)Cc1ccc(C2CCCCN2C(=O)c2cccc(CO)n2)cc1 (stereo not drawn) | -6.965%
CCc1nnc(CN(C)c2nc(C(C)C)nc3c2cnn3C)o1 | -18.37%
COCCn1ccnc1C1CCN(C(=O)CSc2nnc(C)s2)CC1 | 0.08651%
O=C(O)CNc1cc(-c2cc(C(=O)NC3CC3)ccn2)c2cc[nH]c2n1 | -16.96%
Cc1cc(C(=O)N2CCc3nc4sc(C)cc4c(=O)n3CC2)on1 | 6.829%
CN(C(=O)c1cccc(C#N)c1)c1nnc(C2CCOC2)s1 (stereo not drawn) | 6.031%
CCc1noc(CNCC2CCCN2c2cccnn2)n1 (stereo not drawn) | 7.517%
[H][C@@]12CCN(C(=O)C3CCOCC3)[C@]1([H])CCC(=O)N2Cc1csc(C)n1 | 3.367%
CCN1CCC(CNC(=O)C2(c3ccc(F)cc3)CC2)C1 (stereo not drawn) | 11.51%
COc1ccc2c(c1)NC(=O)C2OC(=O)Cc1ccccc1C (stereo not drawn) | 3.52%
CC(CNC(=O)N1CCN(CC(F)F)CC1)Cc1cccs1 (stereo not drawn) | -2.48%
Cc1nocc1C(=O)N1CCOC2(COCCN(C(C)C)C2)C1.O=C(O)C(F)(F)F (stereo not drawn) | -1.226%
CSc1ccc(CNC2CCCc3c2cnn3C)cc1.Cl (stereo not drawn) | 2.328%
COc1cccc2cc(CNC(=O)N3CCC(C(N)=O)CC3)oc12 | -3.713%
CSC(C)(C)CNC(=O)NC1CCN(CC(F)F)CC1 | -28.68%
CN(C)Cc1ccnc(C2CCCN2Cc2ccc(F)cn2)n1 (stereo not drawn) | 1.865%
[H][C@@]12CCN(Cc3ccco3)C[C@@]1([H])O[C@H](c1ccnc(C)n1)C2 | 5.596%
CCN(CC(=O)NC(C)C)S(=O)(=O)N1CCCCCC1 | -6.459%
O=C(CC(F)(F)F)Nc1cc(F)ccc1OCC1CCCO1 (stereo not drawn) | 11.22%
COC1CN(C(=O)C2CC2)CCC(=O)N(C)c2ccccc21 (stereo not drawn) | -16.08%
Cc1cc(C)c(CNC(=O)NC2CCOCC2)c(=O)[nH]1 | -4.563%
CC[C@@H]1N(Cc2ccsc2)CCC[C@]12CCC(=O)N2CCOC.O=C(O)C(F)(F)F | -6.239%
CN(CCC(=O)N1CCc2sccc2C1)Cc1cnn(C)c1 | 5.404%
Cc1ccc(-c2nc(CN3CCCC(C(=O)N(C)C)C3)cs2)o1 (stereo not drawn) | 11.2% & -10.54% & 42.19%
CC1(C)OC(=O)N(CCCC(=O)c2ccc(F)cc2)C1=O | -3.223%
Cc1noc(C(C)C)c1C(=O)NCCCN1CCCC1 | 7.111%
COCCN1CCC(NCc2cccc(F)c2)C1 (stereo not drawn) | 8.994%
Cc1ccc2c(n1)N(CCN(C)C)CCN(C(=O)c1cccs1)C2.O=C(O)C(F)(F)F.O=C(O)C(F)(F)F | -1.823%
[H][C@@]12CCN(Cc3nccs3)C[C@]1(c1nnc(C)o1)CCO2 | -7.089%
CSCCC(NC(N)=O)C(=O)N1CCC(Cc2ccccc2)CC1 (stereo not drawn) | -2.997%
Cc1noc(C(C)C)c1C(=O)NCCCOC(C)C | -1.067%
Cc1nc(-c2ccsc2)ccc1C(=O)NCCN1CCOCC1 | 8.739%
CCC(CNC1CCN(C(C)=O)CC1)Oc1cccc(C)c1 (stereo not drawn) | 5.151%
Cc1cccc(CN2CCCn3c(nnc3Cn3cccn3)C2)n1.O=C(O)C(F)(F)F | -12%
O=C(O)C(F)(F)F.[H][C@]12CCN(Cc3nccs3)[C@@]1([H])C[C@@H](C(=O)N1CCOCC1)O2 | -6.99%
CCCc1ccc(S(=O)(=O)Nc2ccc(=O)n(C)c2)cc1 | 17.51%
COc1ccc(C(N)c2cccc(S(C)(=O)=O)c2)cc1 (stereo not drawn) | -6.127%
O=C(O)C(F)(F)F.[H][C@@]12CN(Cc3ccc(OC)cc3)C[C@]1([H])OCCN2C | -4.875%